# Results are given in words; binding and its absence hold for the method and conditions named. Some entries that bind do so weakly or less than the wild type.
# Sequences of proteins named here, by UniProt entry; tags and fusion partners are left off. Residues count along the entry.
# UniProt Q15116, residues 25-167: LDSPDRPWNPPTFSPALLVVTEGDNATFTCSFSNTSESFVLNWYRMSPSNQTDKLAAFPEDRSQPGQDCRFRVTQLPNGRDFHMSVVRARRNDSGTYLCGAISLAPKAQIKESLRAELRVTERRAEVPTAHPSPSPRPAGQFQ
# B1: mAb C[PD-1] H1.19_L1 (antibody, name in Kabat numbering, V domains shown)
# VH: EVQLVESGGGLVQPGGSLRLSCAASGFTFSSLGMHWVRQAPGKGLEWVSYISSGSSIIYYADSVKGRFTISRDNAKNSLYLQMNSLRAEDTAVYYCARGGRLVWSPDYWGQGTLVTVSS
# VL: DIVMTQSPDSLAVSLGERATINCKSSQSLLNSGNQKNYLTWYQQKPGQPPKLLIYWASTRESGVPDRFTGSGSGTDFTLTISSLQAEDVAVYYCQNDYSYPFTFGSGTKLEIK
# Tests used:
# [1] = biological target: PD-1 (antigen of the Octet affinity measurements of Example 9 and of the affinities quoted afterwards) (UniProt Q15116); experiment: Octet
# [2] = biological target: PD-1 (antigen of the Octet affinity measurements of Example 9 and of the affinities quoted afterwards) (UniProt Q15116); experiment: Octet (legend of FIG. 66)
binder,measurement,setting,value
B1,binding,[1],binds
same,binding,[2],binds
